No constants are given. Whether binding was seen depends on the method and setting. For some assays here: Binding seen in cells or lysates may run through a third protein. Some results given as binding are weak or reduced against the parent protein; the word gives no strength.
Assays:
[1] = molecular target: TSG101, HA- or FLAG-tagged, wild type (human) (UniProt Q99816); test: co-IP
[2] = molecular target: recombinant RABV M, His-tagged (rabies virus (strain not stated for the construct)) (UniProt P25223); test: ELISA; both purified

Protein sequences, listed by entry. Tags and fused reporters are not part of them.
UniProt Q99816: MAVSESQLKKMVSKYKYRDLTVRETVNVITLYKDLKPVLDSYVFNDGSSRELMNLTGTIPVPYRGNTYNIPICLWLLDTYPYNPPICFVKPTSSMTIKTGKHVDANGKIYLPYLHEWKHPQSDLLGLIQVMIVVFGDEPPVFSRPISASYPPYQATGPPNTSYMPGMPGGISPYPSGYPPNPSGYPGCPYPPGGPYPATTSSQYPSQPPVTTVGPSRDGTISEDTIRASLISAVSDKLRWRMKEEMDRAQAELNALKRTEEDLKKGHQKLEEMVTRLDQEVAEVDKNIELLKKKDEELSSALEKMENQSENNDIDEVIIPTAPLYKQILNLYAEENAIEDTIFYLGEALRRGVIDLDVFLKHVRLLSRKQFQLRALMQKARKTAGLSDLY
UniProt P25223: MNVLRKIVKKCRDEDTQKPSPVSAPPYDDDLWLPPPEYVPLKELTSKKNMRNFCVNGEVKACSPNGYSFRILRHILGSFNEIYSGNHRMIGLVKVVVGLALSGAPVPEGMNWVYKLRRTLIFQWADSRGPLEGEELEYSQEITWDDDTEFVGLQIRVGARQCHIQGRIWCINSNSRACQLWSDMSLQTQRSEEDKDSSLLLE
UniProt Q8WUM4: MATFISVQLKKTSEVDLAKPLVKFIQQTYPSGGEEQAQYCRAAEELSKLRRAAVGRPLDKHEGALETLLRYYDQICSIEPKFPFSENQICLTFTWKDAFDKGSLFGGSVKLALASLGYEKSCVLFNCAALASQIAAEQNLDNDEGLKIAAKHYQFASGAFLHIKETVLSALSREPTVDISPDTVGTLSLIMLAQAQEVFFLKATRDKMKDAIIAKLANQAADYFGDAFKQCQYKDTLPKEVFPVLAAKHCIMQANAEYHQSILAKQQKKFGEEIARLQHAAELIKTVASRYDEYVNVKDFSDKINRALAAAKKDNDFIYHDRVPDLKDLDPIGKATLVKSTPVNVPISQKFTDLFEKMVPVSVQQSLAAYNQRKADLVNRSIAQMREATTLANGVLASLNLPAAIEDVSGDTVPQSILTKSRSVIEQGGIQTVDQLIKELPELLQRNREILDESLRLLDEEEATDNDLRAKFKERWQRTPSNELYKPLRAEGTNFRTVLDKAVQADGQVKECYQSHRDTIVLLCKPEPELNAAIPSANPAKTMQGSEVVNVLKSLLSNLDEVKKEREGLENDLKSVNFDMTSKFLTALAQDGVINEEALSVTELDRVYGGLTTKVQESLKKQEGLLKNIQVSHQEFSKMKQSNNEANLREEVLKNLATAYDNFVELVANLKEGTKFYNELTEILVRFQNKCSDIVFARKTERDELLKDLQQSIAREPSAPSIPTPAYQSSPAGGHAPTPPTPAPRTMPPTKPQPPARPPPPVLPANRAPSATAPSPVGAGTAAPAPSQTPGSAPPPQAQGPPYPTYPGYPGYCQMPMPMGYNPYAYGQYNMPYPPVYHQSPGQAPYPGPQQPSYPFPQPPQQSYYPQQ

Substance: rabies virus (RABV) matrix protein (M), HA- or FLAG-tagged (from UniProt P25223 1-202)
- binding [1]: binds

Substance: recombinant human Alix, His-tagged (from UniProt Q8WUM4 1-868)
- binding [2]: binds
